In US20210171624A1 (ELIXIRON IMMUNOTHERAPEUTICS HONG KONG, published 2021):
No constants are given. Whether binding was seen depends on the method and setting. Some binding calls cover weakened binding; strength is not graded here.

Columns and labels:
[1] = molecular target: T1, recombinant human IFN-γ protein (human, UniProt P01579 24-166, limits assumed); assay: ELISA, human IFN-γ coated at 2 µg/mL, mAb at 1 and 0.1 µg/mL, OD405
T1 sequence: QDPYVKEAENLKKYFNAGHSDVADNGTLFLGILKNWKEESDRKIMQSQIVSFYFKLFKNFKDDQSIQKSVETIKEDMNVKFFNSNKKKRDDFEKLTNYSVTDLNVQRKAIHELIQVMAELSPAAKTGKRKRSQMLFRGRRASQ

[2] = molecular target: T1, recombinant human IFN-γ protein; assay: ELISA, plate coated with 2 µg/mL recombinant human IFN-γ, anti-human IgG Fc-AP detection, OD 405 nm
[3] = molecular target: T1, recombinant human IFN-γ protein; assay: BLI epitope binning, biotinylated human IFN-γ on streptavidin tips, antibodies at 5 µg/mL
[4] = molecular target: T1, recombinant human IFN-γ protein; assay: BLI, antibody captured on AHC biosensor, recombinant human IFN-γ 0.625-10 nM as analyte
[5] = molecular target: T1, recombinant human IFN-γ protein; assay: BLI, mAb captured on AHC biosensor
[6] = molecular target: T1, recombinant human IFN-γ protein; assay: ELISA, biotinylated human IFN-γ on streptavidin plate, HRP anti-human IgG, OD 450-650 nm
Protocol: Recombinant human IFN-γ (R&D systems 285-IF-100) and Cynomolgus IFN-γ (R&D systems 961-RM-025) were biotinylated according to kit manual (EZ-Link NHS-LC-Biotin; Thermo #21336) and bound to streptavidin coated plate respectively. After incubated at room temperature for 1-2 hours, the plate was washed three times with 300 μL wash buffer. Serial dilutions of anti-IFN-γ antibody were added to wells. After incubated at room temperature for 1-2 hours, the plate was washed three times with 300 μL wash buffer. HRP anti-Human IgG was applied to each well at room temperature for 1 hour incubation. After washing, the plates were developed with TMB substrate, and analyzed under OD₄₅₀₋₆₅₀.

[7] = molecular target: T1, recombinant human IFN-γ protein; assay: BLI, antibody captured on AHC biosensor, recombinant human IFN-γ 0.625-20 nM as analyte
[8] = molecular target: T1, recombinant human IFN-γ protein; assay: ELISA, biotinylated human IFN-γ on streptavidin plate, OD450-650
[9] = molecular target: T1, recombinant human IFN-γ protein; assay: BLI, antibody captured on AHC biosensor, recombinant human IFN-γ 0.625-20 nM as analyte [cont.]

Measured: binding

B1: antibody 1E8 (antibody, human IgG1, V domains shown)
VH: EVQLLESGGGLVQPGGPLRLSCAASGFTFSIYSMNWVRQAPGKGLEWVSSISGSGDNTYYADSVKGRFTITRDSSKNTLYLQMNTLRAEDTAVYFCAKSGRNIISPGFDSWGQGTLVTVSS
VL: QPVLTQPPSASASLGASVTLTCTLNSDYGDYKVDWYQQRPGKGPRFVMRVGTGGIVGSKGDGIPDRFSVLGSGLNRFLTIKNIQEEDESDYYCGADHGSANNFIWVFGGGTKLTVL
notes: Human IgG1 lambda
binds: [1] | [2] | [3] | [4] | [5]

B2: antibody 2F2 (antibody, human IgG1, V domains shown)
VH: EVQLVESGGGLVKPGESLRLACVASGFNFSDYYMTWIRQAPGKGLEWVSYISNSGSHTYYADAVKGRFTVSRDNAKNSLYLQMTSLRGEDTAIYFCARDPSIMRGTYYMDVWGKGTTVTVSS
VL: QSVLTQPPSASGTPGQRVTISCSGSSSNIGTNPVSWYQQFPGMAPKLLIYFNNQRPSGVPERFSGSKSGTPASLAIGGLQSEDEANYYCASWDDTLNGLVFGGGTKLTVL
notes: Human IgG1 lambda
binds: [1] | [2] | [3] | [4] | [5]

B3: antibody 2A6 (antibody, human IgG1, V domains shown)
VH: EVQLVESGGGLVKPGDSLTVSCVASGFTFSNYFIHWVRQAPGKGLEWVATISGRTKYMFYSDSLRGRFTVSRDNANNSVYLHMSSLRGEDTALYYCVRGYDHSDSNSAADLLHWGRGTLVTVSS
VL: NFMLTQPLSVSGYPGKTIVISCVRSSGSVASHYVQWFQQRPGSAPAMVIYEDSHRPSGIPDRFSGSVDASSNSASLTISGLKTEDEADYFCQSYYGNNQVLFGGGTKLTVL
modifications: partial N-linked glycosylation at Asn-76 of the VH
notes: Human antibody from a single B cell, cloned into human IgG1 lambda expression vectors and made in FreeStyle 293-F cells
binds: [1] | [6] | [2] | [7] | [3] | [4] | [5] | [8]

B4: antibody 2A6_A (antibody, human IgG1, V domains shown)
VH: EVQLVESGGGLVKPGDSLTVSCVASGFTFSNYFIHWVRQAPGKGLEWVATISGRTKYMFYSDSLRGRFTVSRDNAANSVYLHMSSLRGEDTALYYCVRGYDHSDSNSAADLLHWGRGTLVTVSS
VL: NFMLTQPLSVSGYPGKTIVISCVRSSGSVASHYVQWFQQRPGSAPAMVIYEDSHRPSGIPDRFSGSVDASSNSASLTISGLKTEDEADYFCQSYYGNNQVLFGGGTKLTVL
notes: removes the N-glycosylation site of the VH; human IgG1 lambda; also called c2A6_A
binds: [6] | [7] | [8]

B5: antibody 2A6_Q (antibody, human IgG1, V domains shown)
VH: EVQLVESGGGLVKPGDSLTVSCVASGFTFSNYFIHWVRQAPGKGLEWVATISGRTKYMFYSDSLRGRFTVSRDNAQNSVYLHMSSLRGEDTALYYCVRGYDHSDSNSAADLLHWGRGTLVTVSS
VL: NFMLTQPLSVSGYPGKTIVISCVRSSGSVASHYVQWFQQRPGSAPAMVIYEDSHRPSGIPDRFSGSVDASSNSASLTISGLKTEDEADYFCQSYYGNNQVLFGGGTKLTVL
notes: removes the N-glycosylation site of the VH; human IgG1 lambda; also called c2A6_Q
binds: [6] | [7] | [8]

B6: antibody 2B6 (antibody, human IgG1, V domains shown)
VH: EVQLVESGGGLVKPGGSLRLSCAASGFPFSRYSMHWVRQAPGKGLEWVSSMTSRTNHKYYADSLKGRFLISRDNDRDSLYLEMNSLGVEDTAIYFCARGYDTSGSDSGVDFQYWGQGTLVTVSS
VL: NFMLTQPHSVSESPGKTITISCTRGRGYIASYYVQWYQQRPGGVPKIVVFEDTQRPSGVPDRISGSIDTSTNSASLTISGLQTEDEADYYCQSYDDANHVIFGGGTKLTVL
notes: Human IgG1 lambda
binds: [1] | [6] | [2] | [7] | [3] | [4] | [5] | [8]

B7: antibody AB (antibody, human IgG1, V domains shown)
VH: EVQLVESGGGLVKPGDSLTVSCVASGFTFSNYFIHWVRQAPGKGLEWVATISGRTKYMFYSDSLRGRFTVSRDNANNSVYLHMSSLRGEDTALYYCVRGYDHSDSNSAADLLHWGRGTLVTVSS
VL: NFMLTQPHSVSESPGKTITISCTRGRGYIASYYVQWYQQRPGGVPKIVVFEDTQRPSGVPDRISGSIDTSTNSASLTISGLQTEDEADYYCQSYDDANHVIFGGGTKLTVL
notes: Combination of the 2A6 VH heavy chain and the 2B6 VL light chain; human IgG1 lambda; also called VH2A6/VL2B6
binds: [1] | [6] | [2] | [9] | [8]
